Reference: publication PMC11831766
These are yes or no findings as the source states them, for the method shown. Binding seen in cells or lysates may run through a third protein. Some entries that bind do so weakly or less than the wild type.

Protein sequences, listed by entry. Tags and fused reporters are not part of them.
UniProt P68104: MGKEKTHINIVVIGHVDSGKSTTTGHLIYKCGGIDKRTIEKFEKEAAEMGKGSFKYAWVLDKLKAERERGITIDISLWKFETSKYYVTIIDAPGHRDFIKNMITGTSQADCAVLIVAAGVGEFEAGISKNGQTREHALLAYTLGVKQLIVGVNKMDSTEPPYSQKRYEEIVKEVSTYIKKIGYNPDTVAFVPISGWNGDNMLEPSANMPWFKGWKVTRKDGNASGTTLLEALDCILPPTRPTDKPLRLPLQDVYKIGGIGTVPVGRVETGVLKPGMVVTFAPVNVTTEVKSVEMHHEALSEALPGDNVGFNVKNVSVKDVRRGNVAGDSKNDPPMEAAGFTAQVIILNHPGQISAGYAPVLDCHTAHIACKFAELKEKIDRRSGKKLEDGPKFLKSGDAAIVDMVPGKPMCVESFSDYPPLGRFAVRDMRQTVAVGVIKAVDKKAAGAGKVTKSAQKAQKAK
UniProt Q9BVA1: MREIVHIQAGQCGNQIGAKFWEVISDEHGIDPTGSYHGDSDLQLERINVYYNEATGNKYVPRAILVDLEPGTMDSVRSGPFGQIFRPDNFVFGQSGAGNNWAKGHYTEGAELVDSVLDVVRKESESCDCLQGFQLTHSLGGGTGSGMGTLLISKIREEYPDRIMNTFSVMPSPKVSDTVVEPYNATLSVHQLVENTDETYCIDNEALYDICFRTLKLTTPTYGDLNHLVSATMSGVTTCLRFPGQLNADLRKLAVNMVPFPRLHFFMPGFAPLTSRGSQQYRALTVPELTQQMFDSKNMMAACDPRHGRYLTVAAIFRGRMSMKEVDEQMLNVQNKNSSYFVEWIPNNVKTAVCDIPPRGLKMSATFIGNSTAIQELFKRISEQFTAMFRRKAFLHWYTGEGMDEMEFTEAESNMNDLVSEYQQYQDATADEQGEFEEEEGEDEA

Target: eukaryotic translation elongation factor 1 alpha 1 (eEF1A1) (human (endogenous in HCC1806)) (UniProt P68104)
Assay: co-IP; IP with eEF1A1 antibody from HCC1806 lysate (EBC buffer, 1 mg protein, 4 °C overnight, Protein G Dynabeads); cells overexpressing TUBB2B-Flag (WB Flag) or wild type cells (WB TUBB2B antibody)

| Substance | binding |
| --- | --- |
| Tubulin beta 2B class IIb (TUBB2B), endogenous (from UniProt Q9BVA1 1-445) | binds |
| flag-TUBB2B (Tubulin beta 2B class IIb, Flag-tagged) (from UniProt Q9BVA1 1-445) | binds |
